Measured values published in article PMC4510591.

How the values were obtained:
[1] = biological target: T1, Spindle-F (Spn-F), overexpressed in S2 cells (Drosophila) (UniProt Q9V9Y9); assay: co-IP; transfected S2 cells lysed in 50 mM Tris-HCl pH 7.5, 150 mM NaCl, 0.5% Triton X-100, 10% glycerol, 1 mM EDTA, 1 mM DTT; anti-HA, anti-GFP or anti-myc beads, 2 h at 4°C
T1 sequence: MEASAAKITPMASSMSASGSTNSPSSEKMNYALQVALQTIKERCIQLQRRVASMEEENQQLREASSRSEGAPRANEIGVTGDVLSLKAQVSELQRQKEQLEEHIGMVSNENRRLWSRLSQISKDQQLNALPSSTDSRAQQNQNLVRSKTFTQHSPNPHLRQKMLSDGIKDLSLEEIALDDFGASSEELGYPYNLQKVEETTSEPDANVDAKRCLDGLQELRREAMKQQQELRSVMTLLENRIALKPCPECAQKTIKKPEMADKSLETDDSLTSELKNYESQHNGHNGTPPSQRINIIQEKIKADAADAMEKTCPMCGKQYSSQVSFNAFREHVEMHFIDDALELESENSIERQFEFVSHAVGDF

[2] = biological target: T2, Spindle-F (Spn-F), endogenous in ovary (Drosophila (endogenous in ovary)) (UniProt Q9V9Y9); assay: co-IP; ovary lysates of adult females in lysis buffer; rabbit anti-Spn-F (rabbit anti-GFP as control IgG), 1 h, then Protein G-Sepharose 1 h at 4°C
T2 sequence: T1 sequence

[3] = biological target: T3, Spn-F C1 construct (amino acids 191-273) (Drosophila) (UniProt Q9V9Y9); assay: co-IP; transfected S2 cells lysed in 50 mM Tris-HCl pH 7.5, 150 mM NaCl, 0.5% Triton X-100, 10% glycerol, 1 mM EDTA, 1 mM DTT; anti-HA, anti-GFP or anti-myc beads, 2 h at 4°C
T3 sequence: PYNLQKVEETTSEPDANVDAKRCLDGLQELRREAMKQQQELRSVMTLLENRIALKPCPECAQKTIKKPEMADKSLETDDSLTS

binding [1] | binding [2] | binding [3] | Substance
binds |  |  | IKKε::myc (Drosophila) (enzyme)
 | binds |  | IκB kinase ε (IKKε), endogenous in ovary (Drosophila (endogenous in ovary)) (enzyme)
binds |  | binds | IKKε::HA (Drosophila) (enzyme)

Results are given in words; binding and its absence hold for the method and conditions named. In cells and extracts the contact can be indirect. Binding calls can cover weak binding; strength is not graded here.
